PubChem BioAssay AID1508588 | Peter MacCallum Cancer Centre, 2020

Aim: 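Knock-downs boosting vemurafenib effects on melanoma cell growth or lactate release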 (primary screen)
Cells: human WM266.4 melanoma cells (BRAF V600 mutant)
Reagent: siRNA pool against human genes, 40 nM
Duration: 96 h from transfection to read-out
Challenge: vemurafenib 300 nM (about IC25), added 48 h after transfection, for 48 h; comparison arm got DMSO vehicle only
Measurement: 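Ratios to non-targeting siRNA for cell gain, counted as DAPI nuclei after minus before drug and averaged over two replicates, and for absorbance-read medium lactate per cell; both binned into fold-change classes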
Scale: cell gain with vemurafenib: higher = more cell gain than with non-targeting siRNA; lactate per cell with vemurafenib: higher = more lactate made per cell
Call rule: 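a knock-down counts as enhancing when its fold-change classes with vehicle and with vemurafenib, taken together, show a stronger drug effect on cell gain or lactate per cell; exact class pairs not stated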
Calls: active = enhances vemurafenib effect; inactive = no enhancement seen
This is an unselected part of about 18,000 deposited reagents. 790 of them (4.4%) were called active. 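Calls rest on a combination of fold-change classes in drug and vehicle arms, not all shown here.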 Some reagents were tested in more than one well and are listed for each.

Gene	cell gain with vemurafenib	lactate per cell with vemurafenib	activity call
GNAL	0.84	0.5	inactive
EFTUD2	0.11	1.76	inactive
SMAD2	0.86	0.84	inactive
MTA3	0.97	0.38	inactive
PON2	0.65	0.82	inactive
TMPRSS7	0.18	1.86	inactive
TCF7	0.58	1.04	inactive
RTN4R	0.84	1.66	inactive
TTC39A	0.62	0.9	inactive
SLC16A7	0.62	0.22	inactive
IL17C	0.66	0.93	inactive
DRG1	0.81	1.15	inactive
RSU1	0.55	1.23	inactive
GDAP1L1	-0.04	0.04	active
MTHFD1	0.43	1.08	inactive
ATG7	0.47	1.4	inactive
TRPC4	0.79	0.68	inactive
SGPP2	0.98	0.93	inactive
VARS1	0.76	1.09	inactive
OR1C1	0.29	1.25	inactive
PPP2R5C	0.73	1.17	inactive
DNAH11	0.92	0.77	inactive
CUL5	1.1	0.84	inactive
CUL5	1.06	0.7	inactive
STAP1	0.53	1.23	inactive
SALL3	1.1	0.87	inactive
LRP1B	0.35	0.9	inactive
FAM47C	0.7	1.1	inactive
KRABD4	0.58	1.03	inactive
ACSBG1	0.79	1.08	inactive
KCNJ5-AS1	0.38	1.15	inactive
SETD6	0.61	1.71	inactive
ELOVL5	0.88	1.06	inactive
GAGE2E	0	0	inactive
ACKR5	0.31	0.22	inactive
GALNT7	0.91	0.54	inactive
SLC27A4	0.69	0.9	inactive
CCHCR1	0.72	0.24	inactive
IQCN	0.88	1.17	inactive
FOXR2	0.42	1.62	inactive
CFAP206	0.36	0.55	inactive
PDE6D	0.95	0.55	inactive
ITGAL	1.06	0.51	inactive
MYORG	0.48	1.45	inactive
MLEC	0.37	0.42	active
C9orf78	0.82	0.76	inactive
BMF	1.1	0.94	inactive
MGLL	0.64	0.92	inactive
NKPD1	0.41	1.19	inactive
SF3B5	0.08	1.73	inactive
TOR1B	0.43	0.86	inactive
TRIOBP	0.9	0.86	inactive
LIMD1	0.41	0.8	inactive
SLITRK2	0.93	0.36	inactive
VAT1	0.28	0.73	inactive
APIP	0.63	0.61	inactive
TMEM216	0.02	1.29	inactive

Reagents above called active, once more:
Gene	cell gain with vemurafenib	lactate per cell with vemurafenib	activity call
GDAP1L1	-0.04	0.04	active
MLEC	0.37	0.42	active
